The other results are listed elsewhere or left out.
Tests used:
Assay in all cases: log2 fold change, soluble protein after heating vs DMSO (PISA); higher = thermal stabilisation; K562 cells, 10 uM, 30 min; active = over 0.2 and 3.5 SD of the protein, either way, in both replicates (recomputed)
erlotinib = compound: C#Cc1cccc(Nc2ncnc3cc(OCCOC)c(OCCOC)cc23)c1 [erlotinib]
Method in brief: (§1)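 Quantification of soluble protein used TMTpro 16plex LC-MS/MS, with channel sums equalised. Samples were the supernatant after 21,000xg for 90 min of pooled aliquots from K562 cells (2×10^6 cells/mL) treated with 10 μM compound for 30 min, heated for 3 min over 48°C-58°C, and extracted in PBS with 0.5% NP-40 at 4°C. Values, from duplicates, describe thermal stability against control samples on a log2 fold-change scale.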

Sequences of proteins named here, by UniProt entry; tags and fusion partners are left off. A change or cut given only in a name is not applied to a line headed by its entry.
UniProt Q7Z4W1: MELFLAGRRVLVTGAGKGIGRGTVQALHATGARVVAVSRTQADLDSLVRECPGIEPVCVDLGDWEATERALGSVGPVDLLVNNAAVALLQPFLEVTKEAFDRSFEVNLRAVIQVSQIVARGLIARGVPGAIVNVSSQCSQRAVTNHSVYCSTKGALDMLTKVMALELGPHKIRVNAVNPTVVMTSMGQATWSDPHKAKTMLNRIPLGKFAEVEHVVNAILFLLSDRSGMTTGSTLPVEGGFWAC
UniProt Q9UJV9: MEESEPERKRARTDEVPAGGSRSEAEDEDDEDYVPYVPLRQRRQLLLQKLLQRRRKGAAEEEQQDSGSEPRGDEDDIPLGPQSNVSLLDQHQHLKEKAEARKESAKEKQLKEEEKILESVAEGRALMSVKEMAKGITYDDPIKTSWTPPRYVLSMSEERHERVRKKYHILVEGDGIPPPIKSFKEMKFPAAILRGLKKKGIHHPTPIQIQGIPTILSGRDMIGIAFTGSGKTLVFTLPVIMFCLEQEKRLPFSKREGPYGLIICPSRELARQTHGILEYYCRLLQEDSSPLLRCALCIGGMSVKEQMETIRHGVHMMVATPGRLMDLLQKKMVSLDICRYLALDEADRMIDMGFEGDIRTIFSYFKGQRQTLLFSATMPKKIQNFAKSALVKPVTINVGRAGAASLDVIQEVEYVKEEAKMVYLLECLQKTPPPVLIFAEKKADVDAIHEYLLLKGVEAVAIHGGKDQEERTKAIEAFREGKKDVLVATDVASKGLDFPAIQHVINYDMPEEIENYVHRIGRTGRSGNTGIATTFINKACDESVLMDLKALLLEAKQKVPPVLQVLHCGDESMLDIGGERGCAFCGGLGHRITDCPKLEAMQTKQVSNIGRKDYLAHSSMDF
UniProt O15121: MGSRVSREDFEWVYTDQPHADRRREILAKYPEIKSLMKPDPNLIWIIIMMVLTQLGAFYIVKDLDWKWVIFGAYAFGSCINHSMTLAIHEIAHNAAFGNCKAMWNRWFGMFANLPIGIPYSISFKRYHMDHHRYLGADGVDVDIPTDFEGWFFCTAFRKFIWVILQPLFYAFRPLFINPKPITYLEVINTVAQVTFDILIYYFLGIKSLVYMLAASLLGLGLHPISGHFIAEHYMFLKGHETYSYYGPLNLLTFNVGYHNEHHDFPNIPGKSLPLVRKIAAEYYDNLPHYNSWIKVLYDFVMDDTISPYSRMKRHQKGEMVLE
UniProt Q8WYQ5: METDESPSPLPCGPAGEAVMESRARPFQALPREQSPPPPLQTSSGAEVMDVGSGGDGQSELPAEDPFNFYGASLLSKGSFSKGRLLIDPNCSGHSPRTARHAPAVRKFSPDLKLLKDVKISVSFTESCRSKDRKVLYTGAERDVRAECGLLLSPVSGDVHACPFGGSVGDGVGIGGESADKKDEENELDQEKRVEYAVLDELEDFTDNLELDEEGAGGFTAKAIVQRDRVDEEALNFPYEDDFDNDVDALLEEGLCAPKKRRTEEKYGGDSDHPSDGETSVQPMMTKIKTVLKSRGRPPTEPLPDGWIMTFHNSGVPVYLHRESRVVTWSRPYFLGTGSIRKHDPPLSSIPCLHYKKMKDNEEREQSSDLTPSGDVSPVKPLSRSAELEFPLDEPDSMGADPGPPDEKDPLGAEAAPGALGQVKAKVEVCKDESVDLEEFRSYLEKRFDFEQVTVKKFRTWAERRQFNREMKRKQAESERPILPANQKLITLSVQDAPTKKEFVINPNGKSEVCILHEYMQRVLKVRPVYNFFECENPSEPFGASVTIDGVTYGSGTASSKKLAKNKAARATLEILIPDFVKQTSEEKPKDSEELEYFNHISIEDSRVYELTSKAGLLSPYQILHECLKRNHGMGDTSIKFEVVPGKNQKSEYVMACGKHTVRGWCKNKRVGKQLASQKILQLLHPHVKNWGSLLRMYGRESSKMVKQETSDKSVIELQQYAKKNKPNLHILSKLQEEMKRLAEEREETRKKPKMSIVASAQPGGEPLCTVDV
UniProt Q92620: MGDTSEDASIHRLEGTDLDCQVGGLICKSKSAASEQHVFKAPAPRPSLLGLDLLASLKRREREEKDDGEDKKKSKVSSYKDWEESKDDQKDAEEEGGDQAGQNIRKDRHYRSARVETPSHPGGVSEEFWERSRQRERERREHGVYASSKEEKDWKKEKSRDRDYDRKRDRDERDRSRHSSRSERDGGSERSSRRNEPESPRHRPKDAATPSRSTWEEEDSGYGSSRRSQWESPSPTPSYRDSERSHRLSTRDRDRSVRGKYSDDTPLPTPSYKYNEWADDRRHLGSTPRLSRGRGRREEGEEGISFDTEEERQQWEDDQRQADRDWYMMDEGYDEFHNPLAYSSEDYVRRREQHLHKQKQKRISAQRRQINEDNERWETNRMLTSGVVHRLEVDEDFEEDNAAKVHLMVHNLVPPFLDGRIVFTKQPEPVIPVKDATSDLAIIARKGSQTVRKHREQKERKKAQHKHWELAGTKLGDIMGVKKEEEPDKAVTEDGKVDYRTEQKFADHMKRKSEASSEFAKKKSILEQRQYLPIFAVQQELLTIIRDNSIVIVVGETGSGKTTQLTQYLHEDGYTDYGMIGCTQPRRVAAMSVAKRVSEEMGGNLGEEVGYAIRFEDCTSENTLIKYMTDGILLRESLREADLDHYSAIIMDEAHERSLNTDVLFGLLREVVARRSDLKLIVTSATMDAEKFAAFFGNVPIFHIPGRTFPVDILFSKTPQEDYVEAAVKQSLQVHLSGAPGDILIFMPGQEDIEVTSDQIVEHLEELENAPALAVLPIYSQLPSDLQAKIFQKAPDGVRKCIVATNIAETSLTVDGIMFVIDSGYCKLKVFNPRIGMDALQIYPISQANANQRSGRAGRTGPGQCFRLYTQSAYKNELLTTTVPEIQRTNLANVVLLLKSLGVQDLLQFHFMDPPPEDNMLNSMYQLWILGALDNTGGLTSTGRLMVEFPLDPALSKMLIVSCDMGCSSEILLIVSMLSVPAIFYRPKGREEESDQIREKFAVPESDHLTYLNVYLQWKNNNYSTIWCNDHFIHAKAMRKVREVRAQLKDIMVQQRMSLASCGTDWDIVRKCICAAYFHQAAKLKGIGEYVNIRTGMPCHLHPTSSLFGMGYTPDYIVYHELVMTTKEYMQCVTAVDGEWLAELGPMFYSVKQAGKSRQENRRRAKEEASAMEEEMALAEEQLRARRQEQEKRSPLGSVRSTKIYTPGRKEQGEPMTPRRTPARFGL
UniProt O43583: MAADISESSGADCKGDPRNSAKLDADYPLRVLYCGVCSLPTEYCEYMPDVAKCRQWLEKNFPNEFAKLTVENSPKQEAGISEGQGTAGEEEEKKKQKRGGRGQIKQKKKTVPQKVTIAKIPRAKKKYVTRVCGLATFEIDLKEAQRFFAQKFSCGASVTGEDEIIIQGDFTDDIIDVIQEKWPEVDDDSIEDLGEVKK
UniProt P35659: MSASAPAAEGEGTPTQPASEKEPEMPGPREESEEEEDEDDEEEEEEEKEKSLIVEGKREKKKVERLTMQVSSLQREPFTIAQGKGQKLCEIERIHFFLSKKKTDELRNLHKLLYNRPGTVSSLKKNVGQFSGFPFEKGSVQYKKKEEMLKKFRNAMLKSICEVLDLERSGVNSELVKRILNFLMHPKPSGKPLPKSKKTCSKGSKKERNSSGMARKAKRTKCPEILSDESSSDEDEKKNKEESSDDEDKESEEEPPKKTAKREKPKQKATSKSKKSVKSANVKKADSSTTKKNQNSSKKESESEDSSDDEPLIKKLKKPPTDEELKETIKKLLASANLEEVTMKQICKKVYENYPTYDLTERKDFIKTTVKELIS
UniProt Q08495: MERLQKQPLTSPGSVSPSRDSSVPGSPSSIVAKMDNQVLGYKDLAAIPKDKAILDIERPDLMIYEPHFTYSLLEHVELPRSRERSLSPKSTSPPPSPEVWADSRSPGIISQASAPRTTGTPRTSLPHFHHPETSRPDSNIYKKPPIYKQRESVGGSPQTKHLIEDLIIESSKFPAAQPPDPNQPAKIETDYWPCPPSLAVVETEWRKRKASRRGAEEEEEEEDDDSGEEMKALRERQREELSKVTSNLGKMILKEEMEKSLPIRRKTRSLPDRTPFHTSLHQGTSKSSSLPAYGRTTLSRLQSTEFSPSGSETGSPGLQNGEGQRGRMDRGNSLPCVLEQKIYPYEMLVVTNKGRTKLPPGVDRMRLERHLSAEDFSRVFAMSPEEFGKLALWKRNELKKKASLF
UniProt Q13268: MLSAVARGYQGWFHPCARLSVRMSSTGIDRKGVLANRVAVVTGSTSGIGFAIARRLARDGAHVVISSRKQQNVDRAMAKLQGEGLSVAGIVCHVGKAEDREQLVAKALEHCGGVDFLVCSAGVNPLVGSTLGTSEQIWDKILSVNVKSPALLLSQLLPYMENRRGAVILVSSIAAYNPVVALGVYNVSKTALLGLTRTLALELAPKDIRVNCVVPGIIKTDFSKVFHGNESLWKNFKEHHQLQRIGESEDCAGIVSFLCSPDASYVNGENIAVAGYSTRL
UniProt O94760: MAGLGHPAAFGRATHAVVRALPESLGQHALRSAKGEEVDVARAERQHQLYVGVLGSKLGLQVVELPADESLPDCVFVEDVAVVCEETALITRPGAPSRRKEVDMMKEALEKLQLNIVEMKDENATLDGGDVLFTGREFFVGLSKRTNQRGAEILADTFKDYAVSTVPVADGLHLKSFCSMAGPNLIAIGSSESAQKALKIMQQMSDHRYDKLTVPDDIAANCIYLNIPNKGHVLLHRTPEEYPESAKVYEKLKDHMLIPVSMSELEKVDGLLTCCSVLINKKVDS
UniProt Q9NUI1: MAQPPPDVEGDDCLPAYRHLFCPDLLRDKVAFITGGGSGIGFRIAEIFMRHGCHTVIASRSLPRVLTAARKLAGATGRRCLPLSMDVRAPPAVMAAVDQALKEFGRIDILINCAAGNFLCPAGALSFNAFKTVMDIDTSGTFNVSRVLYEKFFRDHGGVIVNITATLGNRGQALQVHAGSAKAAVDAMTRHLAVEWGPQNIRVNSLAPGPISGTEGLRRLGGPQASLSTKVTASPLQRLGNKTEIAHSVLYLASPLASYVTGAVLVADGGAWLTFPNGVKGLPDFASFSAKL
UniProt Q16698: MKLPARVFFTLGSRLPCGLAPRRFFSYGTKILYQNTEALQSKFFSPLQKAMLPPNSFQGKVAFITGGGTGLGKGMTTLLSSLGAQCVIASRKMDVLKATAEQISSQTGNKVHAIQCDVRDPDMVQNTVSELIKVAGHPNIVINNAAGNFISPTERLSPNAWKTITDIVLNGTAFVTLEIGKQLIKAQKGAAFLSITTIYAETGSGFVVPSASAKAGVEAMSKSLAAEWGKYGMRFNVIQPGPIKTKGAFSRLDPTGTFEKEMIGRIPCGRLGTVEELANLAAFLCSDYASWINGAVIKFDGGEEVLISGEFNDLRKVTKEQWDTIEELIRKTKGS
UniProt Q7L2E3: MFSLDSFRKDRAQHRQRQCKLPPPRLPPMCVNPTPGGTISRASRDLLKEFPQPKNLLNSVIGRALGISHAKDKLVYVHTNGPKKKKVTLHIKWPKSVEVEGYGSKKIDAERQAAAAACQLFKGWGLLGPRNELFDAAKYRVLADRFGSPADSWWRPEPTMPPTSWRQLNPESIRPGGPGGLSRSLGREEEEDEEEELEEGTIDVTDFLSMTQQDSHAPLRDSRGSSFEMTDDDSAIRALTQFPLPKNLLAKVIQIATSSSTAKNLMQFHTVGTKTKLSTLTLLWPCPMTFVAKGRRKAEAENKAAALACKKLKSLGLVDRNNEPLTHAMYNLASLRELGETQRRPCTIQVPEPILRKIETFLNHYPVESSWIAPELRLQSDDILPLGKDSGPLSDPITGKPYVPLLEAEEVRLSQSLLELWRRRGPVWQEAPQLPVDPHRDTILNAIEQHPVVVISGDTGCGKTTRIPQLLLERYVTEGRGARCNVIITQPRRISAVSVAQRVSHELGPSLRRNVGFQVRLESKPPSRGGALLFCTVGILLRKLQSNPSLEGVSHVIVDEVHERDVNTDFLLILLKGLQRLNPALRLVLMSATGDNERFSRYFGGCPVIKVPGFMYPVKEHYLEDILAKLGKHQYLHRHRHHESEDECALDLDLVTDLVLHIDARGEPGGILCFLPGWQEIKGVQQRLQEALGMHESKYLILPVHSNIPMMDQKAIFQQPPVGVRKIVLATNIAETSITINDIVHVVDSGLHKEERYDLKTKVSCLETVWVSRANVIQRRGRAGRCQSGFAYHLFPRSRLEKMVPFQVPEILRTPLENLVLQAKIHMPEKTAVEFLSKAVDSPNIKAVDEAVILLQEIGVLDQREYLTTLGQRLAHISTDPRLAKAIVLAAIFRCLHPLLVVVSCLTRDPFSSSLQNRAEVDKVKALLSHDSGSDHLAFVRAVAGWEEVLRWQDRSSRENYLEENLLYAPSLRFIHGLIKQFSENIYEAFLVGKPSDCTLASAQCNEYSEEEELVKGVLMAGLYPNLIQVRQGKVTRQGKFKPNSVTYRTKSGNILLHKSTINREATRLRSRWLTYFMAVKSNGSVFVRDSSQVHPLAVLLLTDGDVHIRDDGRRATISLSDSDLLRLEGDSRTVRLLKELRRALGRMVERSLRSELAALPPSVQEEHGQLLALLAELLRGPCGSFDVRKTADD

[1] = compound: C/C(=N\NC(=O)C1=CC(=CC=C1)S(=O)(=O)N2CCOCC2)/C3=C(C=CC(=C3)Cl)O
Method in brief: as §1

[2] = compound: C1=CC(=C(C=C1Cl)C2=NC3=NC=CN=C3C(=N2)NC4=CC=NC=C4)F
Method in brief: as §1

[3] = compound: C1=CC(=CC=C1C2=NC3=C(N2)C=C(C=C3)C(=O)N)OC4=CC=C(C=C4)Cl
Method in brief: as §1

[4] = compound: C1=CC2=C(C=CC(=C2)/C=C\3/C(=O)NC(=NCC4=CC=CS4)S3)N=C1
Method in brief: as §1

[5] = compound: C1=CC2=NC=CN=C2C=C1/C=C/3\C(=O)NC(=O)S3
Method in brief: as §1

[6] = compound: C1=CC=C(C=C1)C2=NC(=C(N2)C3=CC=NC=C3)C4=CC(=C(C=C4)Cl)O
Method in brief: as §1

[7] = compound: C1=CC=C2C(=C1)C3=NNC4=CC=CC(=C43)C2=O
Method in brief: as §1

[8] = compound: C1CCN(C1)C(=O)NC2=CC=CC(=C2)NC3=NC=C(C(=N3)NCCC4=CN=CN4)Br
Method in brief: as §1

[9] = compound: C1CN(CCC1(CC2=CC=C(C=C2)Cl)N)C3=NC=NC4=C3C=CN4
Method in brief: as §1

Measured: log2 fold change

DDX3X (UniProt O00571)
inactive: erlotinib 0.076 | [1] -0.034 | [2] -0.781 | [3] 0.054 | [4] 0.039 | [5] -0.031 | [6] -0.129 | [7] 0.094 | [8] -0.18 | [9] -0.39

DGAT1 (UniProt O75907)
inactive: erlotinib -0.056 | [1] 0.086 | [2] -0.032 | [3] 0.006 | [4] 0.064 | [5] 0.041 | [6] 0.017 | [7] -0.104 | [8] -0.066 | [9] 0.044

DDX27 (UniProt Q96GQ7)
inactive: erlotinib 0.104 | [1] -0.116 | [2] -0.287 | [3] 0.015 | [4] 0.059 | [6] -0.039 | [7] 0.025 | [8] -0.064 | [9] -0.259

DCXR (UniProt Q7Z4W1)
inactive: erlotinib -0.001 | [1] 0.021 | [2] 0.018 | [3] -0.002 | [4] 0.007 | [5] 0.019 | [6] -0.051 | [7] 0.027 | [8] 0.017 | [9] 0.007

DDX41 (UniProt Q9UJV9)
inactive: erlotinib 0.045 | [1] -0.15 | [2] -0.024 | [3] -0.044 | [4] -0.157 | [5] 0.002 | [6] -0.137 | [7] 0.063 | [8] -0.098 | [9] -0.165

DIS3L2 (UniProt Q8IYB7)
inactive: erlotinib 0.013 | [1] -0.024 | [2] -0.065 | [3] 0 | [4] 0.011 | [5] 0.173 | [6] -0.006 | [7] -0.111 | [8] 0.037 | [9] -0.164

DEGS1 (UniProt O15121)
inactive: erlotinib -0.075 | [1] 0.076 | [2] -0.113 | [3] 0.145 | [4] 0.049 | [5] -0.003 | [7] -0.096 | [8] -0.245 | [9] 0.32

DGKE (UniProt P52429)
inactive: erlotinib 0.085 | [1] -0.151 | [3] 0.006 | [4] -0.031 | [5] 0.263 | [7] 0.015 | [8] -0.061 | [9] -0.039

DGCR8 (UniProt Q8WYQ5)
inactive: erlotinib -0.165 | [1] -0.086 | [2] -0.469 | [3] 0.027 | [4] -0.055 | [5] -0.14 | [6] -0.022 | [7] 0.013 | [8] 0.039 | [9] -0.231

DHX37 (UniProt Q8IY37)
inactive: erlotinib 0.134 | [1] -0.109 | [2] -0.291 | [3] 0.011 | [4] 0.193 | [7] -0.008

DHX38 (UniProt Q92620)
inactive: erlotinib -0.012 | [1] 0.026 | [2] -0.001 | [3] 0.046 | [4] -0.038 | [5] 0.037 | [6] -0.032 | [7] 0.008 | [8] -0.007 | [9] -0.007

DENR (UniProt O43583)
inactive: erlotinib 0.007 | [1] 0.006 | [2] 0.073 | [3] 0.019 | [4] -0.027 | [5] 0.03 | [6] -0.023 | [7] -0.031 | [8] -0.011 | [9] 0.044

DIS3L (UniProt Q8TF46)
inactive: erlotinib -0.08 | [1] 0.038 | [2] -0.165 | [3] 0.031 | [4] 0.012 | [6] 0.051 | [7] 0.162 | [8] 0.085 | [9] 0.069

DEK (UniProt P35659)
inactive: erlotinib 0.009 | [1] 0.088 | [2] 0.028 | [3] -0.012 | [4] 0.028 | [5] -0.013 | [6] 0.03 | [7] -0.021 | [8] -0.059 | [9] -0.066

DMTN (UniProt Q08495)
inactive: erlotinib 0.018 | [1] 0 | [2] -0.014 | [3] 0.036 | [4] -0.006 | [5] 0.001 | [6] -0.059 | [7] -0.01 | [8] -0.036 | [9] 0.062

DKC1 (UniProt O60832)
inactive: erlotinib -0.059 | [1] -0.111 | [2] -0.155 | [3] 0.015 | [4] -0.066 | [5] 0.003 | [6] -0.047 | [7] -0.032 | [8] -0.045 | [9] -0.078

DHRS2 (UniProt Q13268)
inactive: erlotinib -0.031 | [1] 0 | [2] 0.025 | [3] 0.045 | [4] 0.036 | [5] -0.036 | [6] 0.11 | [7] 0.046 | [8] -0.009 | [9] 0.026

DIAPH1 (UniProt O60610)
inactive: erlotinib 0.072 | [1] 0.058 | [2] -0.109 | [3] -0.037 | [4] 0.031 | [5] 0.04 | [6] 0.067 | [7] 0.006 | [8] -0.072 | [9] -0.235

DIABLO (UniProt Q9NR28)
inactive: erlotinib 0.045 | [1] -0.039 | [2] 0.1 | [3] 0.015 | [4] -0.027 | [5] 0.011 | [6] -0.089 | [7] 0.038 | [8] 0.026 | [9] 0.063

DDAH1 (UniProt O94760)
inactive: erlotinib 0.098 | [1] 0.054 | [3] 0.027 | [4] 0.085 | [5] -0.13 | [7] -0.016 | [8] 0.006 | [9] -0.193

DECR2 (UniProt Q9NUI1)
inactive: erlotinib 0.119 | [1] -0.019 | [2] 0.034 | [3] 0.072 | [4] 0.132 | [5] 0.014 | [7] 0.027 | [8] -0.015 | [9] 0.078

DDHD2 (UniProt O94830)
inactive: erlotinib 0.031 | [1] 0.021 | [2] 0.001 | [3] 0.011 | [4] 0.009 | [5] 0.033 | [6] -0.034 | [7] -0.009 | [8] -0.004 | [9] 0.063

DDB2 (UniProt Q92466)
inactive: erlotinib 0.037 | [1] 0.082 | [2] 0.036 | [3] -0.027 | [4] 0 | [5] -0.149 | [6] 0.011 | [7] -0.027 | [8] -0.102 | [9] 0.154

DECR1 (UniProt Q16698)
inactive: erlotinib -0.001 | [1] 0.024 | [2] 0.061 | [3] 0.011 | [4] 0 | [5] 0.016 | [6] 0.003 | [7] 0.022 | [8] -0.035 | [9] 0.034

DMD (UniProt P11532)
inactive: erlotinib 0.013 | [1] 0.03 | [2] -0.001 | [3] -0.031 | [4] -0.007 | [5] 0.004 | [6] -0.041 | [7] -0.016 | [8] -0.018 | [9] 0.05

DENND4C isoform 7 (UniProt Q5VZ89)
inactive: erlotinib 0.016 | [1] 0.106 | [2] -0.03 | [3] -0.031 | [4] 0.052 | [5] -0.003 | [6] -0.043 | [7] -0.004 | [8] -0.078 | [9] 0.023

DHX30 isoform 2 (UniProt Q7L2E3)
inactive: erlotinib 0.007 | [1] -0.051 | [2] -0.292 | [3] -0.009 | [4] -0.002 | [5] 0.013 | [6] -0.04 | [7] 0.029 | [8] 0.022 | [9] -0.035

DLC1 (UniProt Q96QB1)
inactive: [2] -0.047

Two records picked at random from the list so far:
DHX38 (UniProt Q92620)
inactive: erlotinib -0.012 | [1] 0.026 | [2] -0.001 | [3] 0.046 | [4] -0.038 | [5] 0.037 | [6] -0.032 | [7] 0.008 | [8] -0.007 | [9] -0.007

DGKE (UniProt P52429)
inactive: erlotinib 0.085 | [1] -0.151 | [3] 0.006 | [4] -0.031 | [5] 0.263 | [7] 0.015 | [8] -0.061 | [9] -0.039

(cont.)

DGKA (UniProt P23743)
inactive: erlotinib 0.011 | [2] 0.176 | [3] 0.368 | [5] -0.037 | [6] -0.037

DHPS (UniProt M0R1T2)
inactive: [5] 0.099

DDX47 (UniProt Q9H0S4)
inactive: [1] -0.114 | [2] -0.408 | [4] -0.015 | [5] -0.158 | [6] -0.266 | [7] 0.154

Reference: the supplement of paper PMC10849652
